Experimental data taken from PubChem BioAssay AID1671190 (National Center for Advancing Translational Sciences (NCATS), 2021).
Among all 580,000 compounds or so, about 6,100 (1.1%) were called active. The inconclusive results got no clear call from the source; some entries with a clear call stand among them for comparison. Calls come from the whole dose curve; as a rule, active = well fitted inhibition curve with a large enough effect; inconclusive = small, poorly fitted or top-dose-only effect, or another doubt; inactive = no such curve, though single readings can be large or run the other way. Potencies beside an inconclusive call are fits to weak or partial responses and may not hold up.

Protein sequences, listed by entry. Tags and fused reporters are not part of them. Lines headed by an entry give the natural chain unless they say otherwise; changes in a name come on top.
UniProt P18054: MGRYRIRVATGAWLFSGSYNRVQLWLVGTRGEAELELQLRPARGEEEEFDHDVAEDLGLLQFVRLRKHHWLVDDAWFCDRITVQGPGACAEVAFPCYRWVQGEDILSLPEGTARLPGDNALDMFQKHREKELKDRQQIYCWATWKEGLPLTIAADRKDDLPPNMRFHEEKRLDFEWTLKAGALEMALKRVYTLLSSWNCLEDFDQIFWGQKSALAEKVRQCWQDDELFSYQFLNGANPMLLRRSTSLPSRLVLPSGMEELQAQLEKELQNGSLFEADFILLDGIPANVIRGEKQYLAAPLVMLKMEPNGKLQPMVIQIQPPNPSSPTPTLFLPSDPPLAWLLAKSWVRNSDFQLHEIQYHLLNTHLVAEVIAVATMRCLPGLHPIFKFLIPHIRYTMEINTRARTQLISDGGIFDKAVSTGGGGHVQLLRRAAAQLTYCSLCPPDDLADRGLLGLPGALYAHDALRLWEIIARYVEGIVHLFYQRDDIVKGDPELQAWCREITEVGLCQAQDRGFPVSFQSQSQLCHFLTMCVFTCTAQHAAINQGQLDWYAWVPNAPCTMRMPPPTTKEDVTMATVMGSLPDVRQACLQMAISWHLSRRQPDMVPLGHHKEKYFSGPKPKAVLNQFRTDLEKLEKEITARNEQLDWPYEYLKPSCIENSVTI

What follows are compounds tested against Polyunsaturated fatty acid lipoxygenase ALOX12 (Homo sapiens) (UniProt P18054) (assay: Primary qHTS assay for inhibitors of human arachidonate 12S-lipoxygenase (ALOX12): Round 2). Conditions: purified 12hLO, xylenol orange hydroperoxide absorbance; series mostly up to 108 µM.
Method in brief: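 Purified human 12hLO at 150 nM in 25 mM Hepes, 0.01% Triton X-100, pH 7.0, preincubated 15 min at room temperature with compound. Reaction started with 40 uM arachidonic acid, 30 min at room temperature. Hydroperoxide measured by Fe-xylenol orange, 573/405 nm absorbance ratio.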
Potency is the fitted concentration of half-maximal effect.

Compound | Potency
Cc1ccc(C(=O)N/C(N)=N/c2nc3ccccc3o2)cc1 | inactive
O=C(O)c1ccc(Cl)c(S(=O)(=O)Nc2ccccc2Cc2ccccc2)c1 | inconclusive: 158 µM [inhibitor, partial curve, poor fit]
C=C1CC2(OC1=O)c1ccccc1CCc1ccccc12 | inactive
COc1ccc(C(=O)NCCNc2ccc([N+](=O)[O-])cc2)cc1 | inconclusive: 44.7 µM [inhibitor, partial curve, poor fit]
O=C(c1cccc(Cl)c1)N1CCc2nc(-c3ccccc3)nc(-c3ccc(Cl)cc3)c2C1 | inactive
COc1ccc(C2CC(C)=NN2c2nc(-c3ccc(F)cc3)cs2)cc1OC (stereo unspecified) | inactive
C=CCN(CC=C)CCOc1ccc(C)cc1[N+](=O)[O-] | inconclusive: 50.1 µM [inhibitor, partial curve, poor fit]
COc1cc(C=C(c2nc3ccccc3s2)c2nc3ccccc3s2)cc(OC)c1O | inconclusive: 56.2 µM [inhibitor, partial curve, poor fit]
COc1ccccc1NC(=O)Nc1nc(CC(=O)NCc2cccnc2)cs1 | inactive
O=C(Nc1nc2c(s1)CCCC2)c1nn(Cc2ccccc2)c(=O)c2ccccc12 | inconclusive: 44.7 µM [inhibitor, partial curve, poor fit]
Cc1ccc(Cl)cc1N1CCN(C(=O)COc2cc(=O)n(C)c3ccccc23)CC1 | inconclusive: 70.8 µM [inhibitor, partial curve, poor fit]
S=C(NCCc1ccccc1)NCC(c1ccco1)N1CCCCC1 (stereo unspecified) | inconclusive: 100 µM [inhibitor, single point]
COc1ccc(CNc2cccc(C(=O)O)c2C)c(OC)c1 | inactive
Cc1cc(C)c(C(=O)c2sc(Nc3cccc(F)c3)nc2N)cc1C | inconclusive: 44.7 µM [inhibitor, partial curve, poor fit]
Cc1oc(-c2ccccc2)nc1CC(=O)Nc1cccc(C(N)=O)c1 | inactive
Cc1nc2sccn2c1C(=O)NC1CC(c2nnc(CN(C)C)n2C)C1 (stereo unspecified) | inconclusive: 14.1 µM [inhibitor, full curve]
O=C(CSc1nccn1Cc1ccco1)Nc1ccccc1 | inconclusive: 44.7 µM [inhibitor, partial curve, poor fit]
O=C1C(=O)N(CCN2CCOCC2)C(c2ccncc2)/C1=C(/O)c1ccc2c(c1)OCO2 (stereo unspecified) | inconclusive: 15.8 µM [inhibitor, partial curve, poor fit]
Cc1cc(C)cc(NC(=O)C(Nc2ccc3oc(C)nc3c2)c2ccccc2)c1 (stereo unspecified) | inconclusive: 25.1 µM [inhibitor, single point]
CC(=O)N1CCc2c(sc3c2c(=O)n(Cc2ccccc2)c(=O)n3Cc2ccccc2Cl)C1 | inactive
Cc1ccc(/C=C/c2onc(C)c2S(=O)(=O)N2CCC(C(=O)N3CCN(c4cc(C)ccc4C)CC3)CC2)cc1 | inconclusive: 7.94 µM [inhibitor, full curve, poor fit]
CCOC(=O)c1sc(-n2[nH]c(C)cc2=O)nc1C | inactive

Random excerpt: two entries already listed.
Compound | Potency
COc1ccc(C(=O)NCCNc2ccc([N+](=O)[O-])cc2)cc1 | inconclusive: 44.7 µM [inhibitor, partial curve, poor fit]
Cc1nc2sccn2c1C(=O)NC1CC(c2nnc(CN(C)C)n2C)C1 (stereo unspecified) | inconclusive: 14.1 µM [inhibitor, full curve]

Next results follow:

Compound | Potency
COc1cc(-c2nc(-c3ccccc3)c(-c3ccc(Br)cc3)[nH]2)cc(OC)c1O | active: 20 µM
Cc1ccc(NC(=S)NC(=O)c2ccc(F)cc2)cc1S(=O)(=O)Nc1cccc(Cl)c1 | active: 12.6 µM
O=C(c1ccccc1)N1Cc2ccccc2CC2(CCCCN2CC2CCNC2)C1 (stereo unspecified) | inconclusive: 14.1 µM [inhibitor, full curve]
CCN1CCCC12Cc1ccccc1CN([S+](C)(=O)[O-])C2 (stereo unspecified) | inconclusive: 31.6 µM [inhibitor, full curve, poor fit]
CCCCC1=CC2=CC(=O)C(C)(OC(=O)C3CCCC3)C(=O)C2=CO1 (stereo unspecified) | active: 15.8 µM
CC1CCN(S(=O)(=O)c2ccc3c(c2)N(CC(=O)NC(C)(C)C)C(=O)CS3)CC1 | inconclusive: 158 µM [inhibitor, partial curve, poor fit]
Cc1ccc2nc(-c3ccccc3)cc(C(=O)N3CCc4ccccc4C3)c2c1 | inconclusive: 56.2 µM [inhibitor, partial curve, poor fit]
Cc1cccc(OCc2nnc(SCC(=O)N3c4ccccc4Sc4ccc(Cl)cc43)o2)c1 | inconclusive: 56.2 µM [inhibitor, partial curve, poor fit]
C=CCc1c(C)nc(C)nc1N/N=C/c1ccc(N(C)C)cc1 | inconclusive: 35.5 µM [inhibitor, partial curve, poor fit]
CCCCCCn1nc(C(=O)N(CC)CC(=O)Nc2c(F)cccc2F)c2ccccc2c1=O | inconclusive: 126 µM [inhibitor, partial curve, poor fit]
CC(=O)N(c1ccc2oc(=O)sc2c1)S(=O)(=O)c1cccs1 | inconclusive: 3.98 µM [inhibitor, full curve, poor fit]
Cc1c(C(=O)c2ccccc2)oc2cc(NC(=O)c3cccnc3)ccc12 | inactive
Cc1ccc(N2C(=O)c3cccc(Oc4ccc(Cl)cc4)c3C2=O)c(C)c1 | inactive
CC(NC(=O)C(C#N)C(=O)/C=C/c1ccccc1)c1ccccc1 (stereo unspecified) | inconclusive: 44.7 µM [inhibitor, partial curve, poor fit]
COc1ccc(/C=C/c2c(-c3ccccc3OC)sc3ccccc23)cc1OC | inconclusive: 39.8 µM [inhibitor, partial curve, poor fit]
O=S(=O)(c1cccc(NC(=S)Nc2ccc(Br)cc2Cl)c1)N1CCOCC1 | inconclusive: 44.7 µM [inhibitor, partial curve, poor fit]
O=C(c1ccc(-c2cccc(C(F)(F)F)c2)o1)N1CCN(c2ccccc2O)CC1 | inconclusive: 50.1 µM [inhibitor, partial curve, poor fit]
COc1ccc(/C=N/Nc2ccccn2)cc1OC | inactive
CC(=O)OCC1(C)CN(c2ccccc2)N(C(=O)c2ccc(C(C)(C)C)cc2)C1=O (stereo unspecified) | inactive
CCc1nc2c(c(-c3ccc(O)cc3)n1)CCN(Cc1cccc(C(F)(F)F)c1)CC2 | inactive
CC1CCCN(C(=O)CNS(=O)(=O)c2cccs2)C1 (stereo unspecified) | inconclusive: 39.8 µM [inhibitor, partial curve, poor fit]
Cc1ccccc1N=C/C(=C/Nc1ccccc1C)[N+](=O)[O-] | inconclusive: 112 µM [inhibitor, single point]

Compound | Potency
CC1(C)CC(=O)C(C(c2ccccc2F)C2C(=O)CC(C)(C)CC2=O)C(=O)C1 | inconclusive: 70.8 µM [inhibitor, partial curve, poor fit]
Cc1cnc(C(=O)NC2C[C@H]3CC[C@@H](C2)N3C(=O)Cc2ccc(F)cc2)cn1 (stereo partly specified) | inactive
Cc1cccc(NC(=O)CSc2nc3ccccc3c(=O)n2C)c1 | inconclusive: 112 µM [inhibitor, single point]
Cc1noc(C)c1C(=O)NCc1ccco1 | inconclusive: 35.5 µM [inhibitor, partial curve, poor fit]
CCCC(c1nnnn1CC(=O)OCC)N(Cc1cc2c(C)cc(C)cc2[nH]c1=O)C1CCCC1 (stereo unspecified) | inconclusive: 28.2 µM [inhibitor, partial curve, poor fit]
CC(C)(C)c1ccc(C(=O)Nc2ccccc2C(=O)Cc2ccccc2)cc1 | inactive
Cc1nc(CC(C)C)cc(C(=O)N2CCCC(Nc3ccc(C)c(C)c3)C2)n1 (stereo unspecified) | inconclusive: 112 µM [inhibitor, partial curve, poor fit]
CCC(=O)N1Cc2ccccc2CC2(CCCN(C)C2)C1 (stereo unspecified) | inconclusive: 100 µM [inhibitor, partial curve, poor fit]
OC[C@@H]1CN(C2CCSCC2)C[C@H]1c1nc(-c2cccnc2)no1 | inactive
CC(=O)c1c(C)nc(C2CC2)nc1SCC(=O)NC(C)C(C)C (stereo unspecified) | inactive
CC(C)CC(=O)N1CCCC(c2nc(-c3cccnc3)no2)CCNC(=O)CC1 (stereo unspecified) | inactive
CCCCn1c(C)cc(C)c(S(=O)(=O)c2ccccc2C)c1=O | inconclusive: 3.16 µM [inhibitor, full curve, poor fit]
COc1cccc(C(=O)N2CCc3cc(OC)c(OC)cc3C2COc2ccc3c(C)cc(=O)oc3c2)c1 (stereo unspecified) | inactive
CCCC(=O)NC(=S)Nc1cccc2c(O)cccc12 | inconclusive: 50.1 µM [inhibitor, partial curve, poor fit]
Cc1cccc(OC[C@H]2C[C@@H](NC(=O)c3c(-c4ccccc4)noc3C)[C@H](O)[C@@H]2O)n1 | inconclusive: 25.1 µM [inhibitor, full curve, poor fit]
O=C(O)C[C@@H]1CCN(C(=O)Nc2ccccc2)C[C@@H]1CCN1CCN(c2ccc(F)cc2)CC1 | inactive
O=C(NC1CCCC1)c1nc(-c2cccc3[nH]ccc23)no1 | inconclusive: 1.58 µM [inhibitor, partial curve, poor fit]
CC(=O)Nc1sc2c(c1C(c1ccc(F)cc1)N1CCOCC1)CCCC2 (stereo unspecified) | inactive
CN(C)C(=O)CNC(=O)c1cc2occc2n1Cc1ccc(Cl)cc1 | inconclusive: 141 µM [inhibitor, partial curve, poor fit]
Cc1ccc(NC(=S)c2nc3ccccc3s2)cc1 | inactive
CC1(C)CC(=O)C2=C(C1)OC(N)=C(C#N)C2c1ccsc1 (stereo unspecified) | inconclusive: 7.94 µM [inhibitor, partial curve, poor fit]
CCCCCN=C(N)N/N=C/c1c[nH]c2ccc(OC)cc12 | inconclusive: 44.7 µM [inhibitor, partial curve, poor fit]
